This note sets out measurements from article PMC11842276.

Like-named read-outs stand apart in the source and are kept apart here. These are yes or no findings as the source states them, for the method shown. Binding seen in cells or lysates may run through a third protein. These calls come from enrichment with a bait or labelling near it, and not all partners need be listed.

Experiment [1] deals with T1, TurboID–ATG8A (A. thaliana) (UniProt Q8LEM4).
T1 sequence: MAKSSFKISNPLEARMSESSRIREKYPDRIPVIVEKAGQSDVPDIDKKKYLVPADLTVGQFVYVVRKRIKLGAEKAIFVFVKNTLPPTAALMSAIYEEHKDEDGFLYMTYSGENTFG
The experiment is described as follows: proximity labelling; TurboID–ATG8A line, biotin proximity-labelling proteomics under Torin (4 h, 9 µM) and ES20-1 (8 h, 100 µM) treatments; TurboID alone as negative control; n = 3 replicates.

In experiment [2] the target is T1, TurboID–ATG8A (A. thaliana). The experiment is described as above. The source holds these as a separate data set.

As for VHA-d, the binding result in experiment [1] is on record as “binds”.

TBC/RabGAP1: in experiment [1], the binding result is listed as “binds”.

B1: VHA-a3 (protein, UniProt Q8W4S4 1-821)
chain: MAESGGGGGCCPPMDLMRSETMQLVQLIVPMESAHLTVSYLGDLGLVQFKDLNSEKSPFQRTYAAQIKRCGEMARKIRFFRDQMSKAGVPAKEMQGKENDIDLDDVEVKLGELEAELVEINANNDKLQRSYNELMEYKLVLQKAGEFFSSAHRSAADQQRETESQQAGEDLLESPLLQEEKSIDSTKQVKLGFLTGLVPREKSMVFERILFRATRGNIFIRQTVIEEPVIDPNSGEKAEKNVFVVFYSGERAKSKILKICEAFGANRYPFSEDLGRQAQMITEVSGRLSELKTTIDAGLGQRNILLQTIGDKFELWNLKVRKEKAIYHTLNMLSLDVTKKCLVAEGWSPVFASREIQDALQRAAVDSNSQVGSIFQVLRTKESPPTYFRTNKFTSAIQEIVDAYGVAKYQEANPGVFTIVTFPFLFAVMFGDWGHGICILLATMYLILKEKKLASQKLGDIMEMAFGGRYVILMMSLFSIYTGLIYNEFFSIPFPLFAPSAYDCRDVSCSEATTIGLIKVRDTYPFGLDPVWHGSRSELPFLNSLKMKMSILLGVSQMNLGIIMSYFNARFFKSSVNIWFQFIPQMIFLNSLFGYLSVLIIIKWCTGSQADLYHVMIYMFLSPMDELGENQLFPHQKTLQLVLLFLALVSVPCMLLPKPFILKKQHEARHQGQAYAPLDETDESLHVETNGGGSHGHEEFEFSEIFVHQLIHTIEFVLGAVSNTASYLRLWALSLAHSELSSVFYEKVLLLAWGYNNPLILIVGVLVFIFATVGVLLVMETLSAFLHALRLHWVEFQNKFYEGDGYKFAPFTFIFTANEDE
For the molecule B1, the binding entry in experiment [2] is on record as “binds”.
